The other results are listed elsewhere or left out. Repeats are few or missing, and single values can be far off.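 Cells were imaged in 1,536-well plates, and nuclei stained with an antibody against cleaved PARP were counted against all DNA-stained nuclei to give the apoptosis fraction. Screening doses were chosen to leave most cells alive, and resting and induced cleaved-PARP levels differ strongly between cell lines.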
system: WM1745; experiment: cleaved PARP positive nuclei fraction relative to DMSO control; melanoma cells; higher = more apoptosis; details: library dose: low library concentration; 72 h

Row | Structure (SMILES) | cleaved PARP positive nuclei fraction [%]
1 | CC(=O)c1c(C)c2cnc(Nc3ccc(N4CCNCC4)cn3)nc2n(C2CCCC2)c1=O [palbociclib] + CCc1ccc(CCOc2ccc(CC3SC(=O)NC3=O)cc2)nc1 [pioglitazone] (first compound 0.04 µM, partner dose 2 µM) | 105
2 | Clc1ccc(Nc2nnc(Cc3ccncc3)c3ccccc23)cc1 [vatalanib] + Cn1nnc2c(C(N)=O)ncn2c1=O [temozolomide] (first compound 2 µM, partner dose 2 µM) | 108
3 | C#Cc1cccc(Nc2ncnc3cc(OCCOC)c(OCCOC)cc23)c1 [erlotinib] + OCCn1cc(-c2cnc3nnn(Cc4ccc5ncccc5c4)c3n2)cn1 [PF04217903] (first compound 0.8 µM, partner dose 1 µM) | 117
4 | Cn1cncc1[C@@](N)(c1ccc(Cl)cc1)c1ccc2c(c1)c(-c1cccc(Cl)c1)cc(=O)n2C [tipifarnib] + Oc1cc(-c2nc(-c3ccccc3)[nH]c2-c2ccncc2)ccc1Cl [L779450] (first compound 0.01 µM, partner dose 0.2 µM) | 102
5 | Cn1c(Nc2ccc(C(F)(F)F)cc2)nc2cc(Oc3ccnc(-c4ncc(C(F)(F)F)[nH]4)c3)ccc21 + N#Cc1c(O)c2c(-c3ccc(-c4ccccc4O)cc3)csc2[nH]c1=O [A769662] (first compound 0.08 µM, partner dose 2 µM) | 170
6 | O=C(CCCCCCC(=O)Nc1ccccc1)NO [vorinostat] + O=S(=O)(c1ccccc1)N(CC(F)(F)F)c1ccc(C(O)(C(F)(F)F)C(F)(F)F)cc1 [T0901317] (first compound 0.08 µM, partner dose 1.4 µM) | 133
7 | C[C@]1(c2nc3c(C(N)=O)cccc3[nH]2)CCCN1 [Veliparib] + COc1ccc(-c2ccc3c(N4CCOCC4)nc(N4C[C@@H](C)O[C@@H](C)C4)nc3n2)cc1CO [KU0063794] (first compound 1.4 µM, partner dose 0.02 µM) | 103
8 | Cn1c(Nc2ccc(C(F)(F)F)cc2)nc2cc(Oc3ccnc(-c4ncc(C(F)(F)F)[nH]4)c3)ccc21 + O=C1NC(=O)/C(=C/c2ccc(-c3ccc(F)cc3O)o2)S1 [AS252424] (first compound 0.08 µM, partner dose 1 µM) | 203
9 | Cc1cc(N2CCOCC2)cc2[nH]c(-c3c(NC[C@@H](O)c4cccc(Cl)c4)cc[nH]c3=O)nc12 + CCN(CC)CCCCNc1ncc2cc(-c3cc(OC)cc(OC)c3)c(NC(=O)NC(C)(C)C)nc2n1 [PD173074] (first compound 0.2 µM, partner dose 0.1 µM) | 125
10 | Cc1nc(Nc2ncc(C(=O)Nc3c(C)cccc3Cl)s2)cc(N2CCN(CCO)CC2)n1 [dasatanib] + O=C(O)C(=O)Nc1sc2c(c1C(=O)O)CCNC2 [TCS401] (first compound 0.004 µM, partner dose 1.66667 µM) | 185
11 | Cc1ccc(NC(=O)c2cccc(N(C)C)c2)cc1NC(=O)c1ccc(O)cc1 + N#Cc1c(O)c2c(-c3ccc(-c4ccccc4O)cc3)csc2[nH]c1=O [A769662] (first compound 2 µM, partner dose 2 µM) | 106
12 | C#Cc1cccc(Nc2ncnc3cc(OCCOC)c(OCCOC)cc23)c1 [erlotinib] + N#Cc1c(O)c2c(-c3ccc(-c4ccccc4O)cc3)csc2[nH]c1=O [A769662] (first compound 0.8 µM, partner dose 2 µM) | 112
13 | Nc1cccc2c1CN(C1CCC(=O)NC1=O)C2=O (centres undefined) [lenalidomide] + NC(=O)Nc1cc(-c2cccc(F)c2)sc1C(=O)N[C@H]1CCCNC1 [AZD7762] (first compound 1 µM, partner dose 0.02 µM) | 97.3
14 | Nc1cccc2c1CN(C1CCC(=O)NC1=O)C2=O (centres undefined) [lenalidomide] + COc1cc(N2CCC(N3CCN(C)CC3)CC2)ccc1Nc1ncc(Cl)c(Nc2ccccc2S(=O)(=O)C(C)C)n1 [NVP-TAE684] (first compound 1 µM, partner dose 0.08 µM) | 139
15 | NC(=O)Nc1cc(-c2cccc(F)c2)sc1C(=O)N[C@H]1CCCNC1 + O=c1cc(-c2cccc3c2Sc2ccccc2S3)oc(N2CCOCC2)c1 [KU55933] (first compound 0.02 µM, partner dose 1 µM) | 94.3
16 | Cc1cc(N2CCOCC2)cc2[nH]c(-c3c(NC[C@@H](O)c4cccc(Cl)c4)cc[nH]c3=O)nc12 + Oc1nc(-c2ccc(C(F)(F)F)cc2)nc2c1CSCC2 [XAV939] (first compound 0.2 µM, partner dose 2 µM) | 160
17 | Nc1cccc2c1CN(C1CCC(=O)NC1=O)C2=O (centres undefined) [lenalidomide] + C=CCn1c(=O)c2cnc(Nc3ccc(N4CCN(C)CC4)cc3)nc2n1-c1cccc(C(C)(C)O)n1 [MK1775] (first compound 1 µM, partner dose 0.02 µM) | 138
18 | OCc1c[nH]c2ccccc12 [Indole-3-carbinol] + COc1cc(N2CCC(N3CCN(C)CC3)CC2)ccc1Nc1ncc(Cl)c(Nc2ccccc2S(=O)(=O)C(C)C)n1 [NVP-TAE684] (first compound 0.8 µM, partner dose 0.08 µM) | 108
19 | Clc1ccc(Nc2nnc(Cc3ccncc3)c3ccccc23)cc1 [vatalanib] + C=CCn1c(=O)c2cnc(Nc3ccc(N4CCN(C)CC4)cc3)nc2n1-c1cccc(C(C)(C)O)n1 [MK1775] (first compound 2 µM, partner dose 0.02 µM) | 117
20 | CO[C@@H]1[C@H](N(C)C(=O)c2ccccc2)C[C@H]2O[C@]1(C)n1c3ccccc3c3c4c(c5c6ccccc6n2c5c31)C(=O)NC4 [Midostaurin] + COc1ccc2c(c1)CCC1C2CCC2(C)C(NCCCCCCN3C(=O)C=CC3=O)CCC12 [U73122] (first compound 0.08 µM, partner dose 0.4 µM) | 109
21 | CC(C)(C)c1cnc(CSc2cnc(NC(=O)C3CCNCC3)s2)o1 + N#Cc1c(O)c2c(-c3ccc(-c4ccccc4O)cc3)csc2[nH]c1=O [A769662] (first compound 0.01 µM, partner dose 2 µM) | 95.5
22 | Cn1nnc2c(C(N)=O)ncn2c1=O [temozolomide] + O=c1cc(-c2cccc3c2Sc2ccccc2S3)oc(N2CCOCC2)c1 [KU55933] (first compound 2 µM, partner dose 1 µM) | 97.6
23 | C[C@@H]1CCN(C(=O)CC#N)C[C@@H]1N(C)c1ncnc2[nH]ccc12 + CCCCCCCCCCCC1=C(O)C(=O)C=C(O)C1=O [Embelin] (first compound 1 µM, partner dose 1.2 µM) | 91.3
24 | C=CCn1c(=O)c2cnc(Nc3ccc(N4CCN(C)CC4)cc3)nc2n1-c1cccc(C(C)(C)O)n1 + C[C@@H]1CCN(C(=O)CC#N)C[C@@H]1N(C)c1ncnc2[nH]ccc12 [CP690550] (first compound 0.02 µM, partner dose 1 µM) | 113

2 consecutive records already listed:
Row | Structure (SMILES) | cleaved PARP positive nuclei fraction [%]
13 | Nc1cccc2c1CN(C1CCC(=O)NC1=O)C2=O (centres undefined) [lenalidomide] + NC(=O)Nc1cc(-c2cccc(F)c2)sc1C(=O)N[C@H]1CCCNC1 [AZD7762] (first compound 1 µM, partner dose 0.02 µM) | 97.3
14 | Nc1cccc2c1CN(C1CCC(=O)NC1=O)C2=O (centres undefined) [lenalidomide] + COc1cc(N2CCC(N3CCN(C)CC3)CC2)ccc1Nc1ncc(Cl)c(Nc2ccccc2S(=O)(=O)C(C)C)n1 [NVP-TAE684] (first compound 1 µM, partner dose 0.08 µM) | 139

— the supplement of paper PMC4604168 (melanoma cell lines)
